# From PubChem BioAssay AID1688 (National Center for Advancing Translational Sciences (NCATS), 2009)
# In all, about 220,000 compounds went through this assay and about 2,400 (1.1%) were called active. This list was built around the results that the source calls inconclusive (neither active nor inactive); the mix of calls is not that of the screen. Calls come from the whole dose curve; as a rule, active = well fitted inhibition curve with a large enough effect; inconclusive = small, poorly fitted or top-dose-only effect, or effect the other way; inactive = no such curve, though single readings can be large or run the other way. A potency beside an inconclusive call is a rough fit, not a confirmed value.
# Experiment: qHTS Multiplex Assay to Identify Dual Action Probes in a Cell Model of Huntington: Aggregate Formation (GFP); note: nearly all actives have a fitted effect of over 60% in size
# Conditions: PC12 HttQ103-GFP aggregates, Acumen cytometry, 40 h; activity change, negative = inhibition: at 46.1 µM (top of the series) unless noted
# Summary of the method: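 Steps: seed 1500 PC12 HTTQ103-GFP cells/well; add tebufenozide, 100 nM final; add compound titration; add ATPLite reagent; quantify GFP aggregates by laser scanning cytometry.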
# % is set by controls: 0 for no effect and ±100 for the full control effect; potency is the fitted concentration of half-maximal effect.
SMILES,"activity change, negative = inhibition",Potency
COc1cc(/C=C2\SC(=N)N(c3ccc4c(c3)OCO4)C2=O)cc(OC)c1O,inactive: 26.2%,–
Cc1ccc(C)n1CCN1CCN(C(=O)c2ccco2)CC1,–,"inconclusive: 8.91 µM [activator, partial curve]"
CCn1c(=S)[nH]c2sc3c(c2c1=O)CCCCC3,–,"inconclusive: 11.2 µM [inhibitor, single point]"
Cc1nc(SCc2nc3ccccc3[nH]2)c2oc3ccccc3c2n1,–,"inconclusive: 1 µM [activator, single point]"
CCCCNc1c2c3c(cccc3n(C)c1=O)C(=O)c1ccccc1-2,–,"inconclusive: 15.8 µM [inhibitor, single point]"
Cc1noc(C)c1C(=O)Nc1c(F)cc(F)cc1Br,–,"inconclusive: 35.5 µM [activator, single point]"
COc1ccc(N=c2oc3cc(O)ccc3cc2C(=O)NCC2CCCO2)cc1 (stereo not given),–,"inconclusive: 6.31 µM [activator, single point]"
O=C(OC1CCOC1=O)c1ccc(Cl)c(S(=O)(=O)N2CCCCC2)c1 (stereo not given),inactive: -3.66%,–
N#Cc1ccc(NC(=O)Nc2ccc(Cl)cc2)cc1,–,active: 25.1 µM
O=C(CN1C(=O)C2CC=C(Cl)CC2C1=O)N1CCOCC1 (stereo not given),–,"inconclusive: 0.562 µM [activator, partial curve, poor fit]"
Cc1cc(C)c(-n2nnnc2SCC(=O)c2cc3ccccc3o2)c(C)c1,inactive: -5.88% [at 9.22 µM],–
C/C(CCC1CC(C)OC1=O)=N/Nc1nc(-c2ccccc2)cs1 (stereo not given),–,"inconclusive: 8.91 µM [activator, partial curve]"
CCCOC(=O)CSC1=C(C#N)C(c2ccccc2OC)C(C#N)C(=O)N1 (stereo not given),–,"inconclusive: 25.1 µM [inhibitor, partial curve]"
CC(Nc1cc(=O)n(C)c(=O)[nH]1)c1ccccc1 (stereo not given),–,"inconclusive: 1.26 µM [inhibitor, single point]"
O=C(Cc1ccc(Cl)cc1)N/N=C1\CCCc2ccccc21,–,"inconclusive: 5.62 µM [inhibitor, partial curve]"
COCCn1c(CN(C)Cc2ccccc2)nc2c1c(=O)n(C)c(=O)n2C,inactive: -26.4%,–
CCC1CCCCN1C(=O)CSc1nc2ccsc2c(=O)n1Cc1ccccc1 (stereo not given),–,active: 15.8 µM
O=S(=O)(Nc1cc2nc3ccccc3nc2n1Cc1ccccc1)c1ccc(Cl)cc1,–,"inconclusive: 35.5 µM [inhibitor, single point]"
CCOC(=O)C1CCN(Cc2ccc(OC)cc2OC)CC1,inactive: -2.46%,–
O=C(O)CSc1nnc(-c2ccncc2)n1-c1ccc(Cl)cc1,–,"inconclusive: 0.562 µM [inhibitor, full curve]"

# A second format for some results above:
SMILES | activity change, negative = inhibition | Potency
COc1ccc(N=c2oc3cc(O)ccc3cc2C(=O)NCC2CCCO2)cc1 (stereo not given) | – | inconclusive: 6.31 µM [activator, single point]
O=C(OC1CCOC1=O)c1ccc(Cl)c(S(=O)(=O)N2CCCCC2)c1 (stereo not given) | inactive: -3.66% | –
